The source of these data is PubChem BioAssay AID180 (DTP/NCI, 2004).

The list does not hold the whole screen: it is rich in T/C values a quarter to a half above the control, in often repeated tests (any T/C) and in doses without a T/C. Other doses and runs of a compound stand elsewhere. T/C gives the treated animals as a percentage of the vehicle group. Schedules are NCI's codes, taken here to give the interval after Q, in days (D) or hours (H), and the number of doses after X. Some T/C values are followed by the survivors on the day toxicity was checked, most often the fifth; without a count, all were alive then. Some entries give survivors of the animals treated and no T/C: the source files T/C as zero there, which appears to mark a toxic dose or a test without result, not a measured value. Survivors were counted at the toxicity check, usually on the fifth day, unless a day is given; later deaths do not show. Some entries hold several experiments; the values are given in rising order. Some schedule codes hold Z or #, which are not explained here.

The experiment deals with BDF1 mice, Adenocarcinoma 755 s.c., tumor weight T/C. Description: NCI In Vivo Anticancer Drug Screen. Data for tumor model Adenocarcinoma 755 (subcutaneous) in B6D2F1 (BDF1) mice. The conditions noted are these: T/C endpoint: mean tumor weight, higher T/C = larger tumour; for T/C: evaluated on day 12. Put shortly:
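Readout: T/C, i.e. treated-group measurement over vehicle-control measurement. Endpoint is survival or tumor size in tumor-bearing mice given compound.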

[1] abbreviates: dose: 150.0 mg/kg/injection, schedule: Q01DX011 (ip), vehicle: methylcellulose (MC).

For the compound `N#CCSc1ncnc2nc[nH]c12`, the survivor count was 3 of 10 (dose: 4.0 mg/kg/injection, schedule: Q01DX011 (iv), vehicle: carboxymethylcellulose (CMC)); 5 of 10 (dose: 8.0 mg/kg/injection, schedule: Q#A X022 (ip), vehicle: carboxymethylcellulose (CMC)); 5 of 10 (dose: 16.0 mg/kg/injection, schedule: Q#A X022 (ip), vehicle: carboxymethylcellulose (CMC)); 1 of 10 (dose: 32.0 mg/kg/injection, schedule: Q#A X022 (ip), vehicle: carboxymethylcellulose (CMC)); 0 of 10 (dose: 64.0 mg/kg/injection, schedule: Q#A X022 (ip), vehicle: carboxymethylcellulose (CMC)); 1 of 10 (dose: 128.0 mg/kg/injection, schedule: Q01DX011 (ip), vehicle: carboxymethylcellulose (CMC)). Besides, the survivor count reads like this: (dose: 200.0 mg/kg/injection, schedule: Q03DX004 (ip), vehicle: carboxymethylcellulose (CMC)) 4 of 10; (dose: 256.0 mg/kg/injection, schedule: Q01DX011 (ip), vehicle: carboxymethylcellulose (CMC)) 0 of 10; (dose: 400.0 mg/kg/injection, schedule: Q01DX001 (ip), vehicle: carboxymethylcellulose (CMC)) 0 of 10; (dose: 400.0 mg/kg/injection, schedule: Q01DX011 (oral), vehicle: carboxymethylcellulose (CMC)) 0 of 10; (dose: 400.0 mg/kg/injection, schedule: Q03DX004 (ip), vehicle: carboxymethylcellulose (CMC)) 0 of 10; (dose: 400.0 mg/kg/injection, schedule: Q07DX002 (ip), vehicle: carboxymethylcellulose (CMC)) 0 of 10. Besides, the survivor count was 0 of 10 (dose: 800.0 mg/kg/injection, schedule: Q01DX001 (ip), vehicle: carboxymethylcellulose (CMC)); 0 of 10 (dose: 800.0 mg/kg/injection, schedule: Q01DX011 (oral), vehicle: carboxymethylcellulose (CMC)); 0 of 10 (dose: 800.0 mg/kg/injection, schedule: Q07DX002 (ip), vehicle: carboxymethylcellulose (CMC)).

On to `CC(=O)[C@@]12OC(C)(C)O[C@@H]1C[C@H]1[C@@H]3C[C@H](C)C4=CC(=O)CC[C@]4(C)[C@H]3CC[C@@]12C`, for which the survivor count (dose: 450.0 mg/kg/injection, schedule: Q01DX011 (sc), vehicle: steroid suspending solution) is 2 of 10 and 6 of 10.

For `c1ccc2cc(SCCCN3CCOCC3)ccc2c1`, the survivor count by setting is: (dose: 75.0 mg/kg/injection, schedule: Q01DX011 (ip), vehicle: methylcellulose (MC)) 6 of 10; under setting [1], 3 of 10; (dose: 300.0 mg/kg/injection, schedule: Q01DX011 (ip), vehicle: methylcellulose (MC)) 5 of 10.

Regarding `N#[N+]c1cnc([O-])[nH]c1=O`, the survivor count is listed as 1 of 10 (dose: 10.0 mg/kg/injection, schedule: Q01DX011 (ip), vehicle: carboxymethylcellulose (CMC)); 1 of 10 (dose: 11.8 mg/kg/injection, schedule: Q01DX011 (ip), vehicle: carboxymethylcellulose (CMC)); 6 of 10 (dose: 1463.0 micrograms/kg/injection, schedule: Q01DX011 (ip), vehicle: carboxymethylcellulose (CMC)). In addition, the T/C (dose: 5850.0 micrograms/kg/injection, schedule: Q01DX011 (ip), vehicle: carboxymethylcellulose (CMC)) was 128 % of control [9 of 10 alive].

For `O=P(N1CCCC1)(N1CC1)N1CC1`, the T/C (dose: 0.5 mg/kg/injection, schedule: Q01DX011 (ip), vehicle: carboxymethylcellulose (CMC)) is 132 % of control [8 of 10 alive].

Turning to `NOCC(=O)O`, the survivor count is, setting by setting: (dose: 18.75 mg/kg/injection, schedule: Q01DX011 (ip), vehicle: water) 6 of 12; (dose: 25.0 mg/kg/injection, schedule: Q01DX011 (ip), vehicle: other) 6 of 10; (dose: 25.0 mg/kg/injection, schedule: Q01DX011 (ip), vehicle: water) 3 of 12; (dose: 37.5 mg/kg/injection, schedule: Q01DX011 (ip), vehicle: other) 2 of 10; (dose: 37.5 mg/kg/injection, schedule: Q01DX011 (ip), vehicle: water) 0 of 12; (dose: 50.0 mg/kg/injection, schedule: Q01DX011 (ip), vehicle: water) 2 of 12.

On to `COc1ccc2c(c1)/C(=C/CCN(C)C)c1ccccc1S2`, for which the survivor count (dose: 30.0 mg/kg/injection, schedule: Q01DX011 (ip), vehicle: methylcellulose (MC)) is reported as 4 of 10.

On to `O=P(N1CCCCC1)(N1CC1)N1CC1`, for which the survivor count (dose: 14.0 mg/kg/injection, schedule: Q01DX011 (ip), vehicle: saline) is 6 of 10.

Consider `Nc1ncnc2c1ncn2C(C=O)OC(C=O)CO` (stereo unspecified), for which the survivor count was 6 of 10 (dose: 30.0 mg/kg/injection, schedule: Q01DX011 (ip), vehicle: carboxymethylcellulose (CMC)); 0 of 10 (dose: 60.0 mg/kg/injection, schedule: Q01DX011 (ip), vehicle: carboxymethylcellulose (CMC)); 0 of 10 (dose: 120.0 mg/kg/injection, schedule: Q01DX011 (ip), vehicle: carboxymethylcellulose (CMC)).

On to `c1nc(N2CC2)c2cnn(C3CCCCO3)c2n1` (stereo unspecified), for which the survivor count (dose: 50.0 mg/kg/injection, schedule: Q01DX011 (ip), vehicle: saline) was 6 of 10.

With `Nc1ccc2cc3ccccc3cc2c1`, the survivor count is 4 of 10 (dose: 42.0 mg/kg/injection, schedule: Q01DX011 (ip), vehicle: carboxymethylcellulose (CMC)) and 0 of 10 (dose: 84.0 mg/kg/injection, schedule: Q01DX011 (ip), vehicle: carboxymethylcellulose (CMC)).

Take `CC(C)Cn1cnc2c(SCc3ccc(Cl)cc3Cl)nc(N)nc21`: the T/C (dose: 4.5 mg/kg/injection, schedule: Q01DX011 (ip), vehicle: other) was 131 % of control [9 of 10 alive].

Take `Cc1ccc(N=Nc2c(S(=O)(=O)O)cc3cc(NC(=O)Nc4ccc5c(O)c(N=Nc6ccc7cc(S(=O)(=O)O)ccc7c6)c(S(=O)(=O)O)cc5c4)ccc3c2O)cc1`: the survivor count was 2 of 10 (dose: 65.0 mg/kg/injection, schedule: Q01DX011 (ip), vehicle: methylcellulose (MC)); 5 of 10 (dose: 100.0 mg/kg/injection, schedule: Q01DX011 (ip), vehicle: methylcellulose (MC)); 5 of 10 under setting [1].

In the case of `CC(=O)NNC(=O)c1ccccn1`, where the note is “dose: 150.0 mg/kg/injection, schedule: Q01DX011 (ip), vehicle: water”, the survivor count is listed as 6 of 12.

With `S=c1nc[nH]c2nc[nH]c12.[Cd]`, the survivor count was 3 of 10 (dose: 1.5 mg/kg/injection, schedule: Q01DX011 (ip), vehicle: saline) and 2 of 10 (dose: 6.0 mg/kg/injection, schedule: Q01DX011 (ip), vehicle: saline).

For the compound `Nc1nc(=S)cc(Nc2ccccc2Cl)[nH]1`, the survivor count (dose: 15.0 mg/kg/injection, schedule: Q01DX011 (ip), vehicle: methylcellulose (MC)) is on record as 5 of 10.

Turning to `S=c1nc[nH]c2c1ncn2C1CCCS1` (stereo unspecified), the T/C (dose: 25.0 mg/kg/injection, schedule: Q01DX011 (ip), vehicle: methylcellulose (MC)) was 148 % of control.

With `NNC(=O)NC(=O)NN`, the T/C (dose: 1922.5 micrograms/kg/injection, schedule: Q01DX011 (ip), vehicle: carboxymethylcellulose (CMC)) was 135 % of control. The survivor count (dose: 9610.0 micrograms/kg/injection, schedule: Q01DX011 (ip), vehicle: carboxymethylcellulose (CMC)) is given as 6 of 10.

Consider `NC(C=O)C(O)C(O)C(O)CO` (stereo unspecified), for which the T/C (dose: 500.0 mg/kg/injection, schedule: Q01DX011 (ip), vehicle: carboxymethylcellulose (CMC)) is 132 % of control.

Turning to `CCCCN(C)/N=N/c1nc[nH]c1C(N)=O`, the survivor count is reported as 5 of 10 (dose: 90.0 mg/kg/injection, schedule: Q01DX011 (ip), vehicle: carboxymethylcellulose (CMC)); 1 of 10 (dose: 100.0 mg/kg/injection, schedule: Q01DX011 (ip), vehicle: carboxymethylcellulose (CMC)); 0 of 10 (dose: 125.0 mg/kg/injection, schedule: Q01DX011 (ip), vehicle: carboxymethylcellulose (CMC)).

`Cn1c(=O)c2c(ncn2CCCO)n(C)c1=O`: for the setting “dose: 25.0 mg/kg/injection, schedule: Q01DX011 (ip), vehicle: carboxymethylcellulose (CMC)”, the T/C is 125 % of control [9 of 10 alive].

As to `c1cc2n(n1)CCN2`, for the setting “dose: 230.0 mg/kg/injection, schedule: Q01DX011 (ip), vehicle: saline”, the survivor count is on record as 2 of 10.

As for `O=C(CCCl)N1CCc2ccccc2C1`, where the note is “dose: 225.0 mg/kg/injection, schedule: Q01DX011 (sc), vehicle: olive oil, sesame oil, peanut oil”, the survivor count is listed as 4 of 10.
